Assay results taken from article PMC6529477.
No constants are given. Whether binding was seen depends on the method and setting. In cells and extracts the contact can be indirect. Some binding calls cover weakened binding; strength is not graded here. Each block holds one substance with its values, some of them ahead of it.

Protein sequences, listed by entry. Tags and fused reporters are not part of them. Lines headed by an entry give the natural chain unless they say otherwise; changes in a name come on top.
UniProt P08183: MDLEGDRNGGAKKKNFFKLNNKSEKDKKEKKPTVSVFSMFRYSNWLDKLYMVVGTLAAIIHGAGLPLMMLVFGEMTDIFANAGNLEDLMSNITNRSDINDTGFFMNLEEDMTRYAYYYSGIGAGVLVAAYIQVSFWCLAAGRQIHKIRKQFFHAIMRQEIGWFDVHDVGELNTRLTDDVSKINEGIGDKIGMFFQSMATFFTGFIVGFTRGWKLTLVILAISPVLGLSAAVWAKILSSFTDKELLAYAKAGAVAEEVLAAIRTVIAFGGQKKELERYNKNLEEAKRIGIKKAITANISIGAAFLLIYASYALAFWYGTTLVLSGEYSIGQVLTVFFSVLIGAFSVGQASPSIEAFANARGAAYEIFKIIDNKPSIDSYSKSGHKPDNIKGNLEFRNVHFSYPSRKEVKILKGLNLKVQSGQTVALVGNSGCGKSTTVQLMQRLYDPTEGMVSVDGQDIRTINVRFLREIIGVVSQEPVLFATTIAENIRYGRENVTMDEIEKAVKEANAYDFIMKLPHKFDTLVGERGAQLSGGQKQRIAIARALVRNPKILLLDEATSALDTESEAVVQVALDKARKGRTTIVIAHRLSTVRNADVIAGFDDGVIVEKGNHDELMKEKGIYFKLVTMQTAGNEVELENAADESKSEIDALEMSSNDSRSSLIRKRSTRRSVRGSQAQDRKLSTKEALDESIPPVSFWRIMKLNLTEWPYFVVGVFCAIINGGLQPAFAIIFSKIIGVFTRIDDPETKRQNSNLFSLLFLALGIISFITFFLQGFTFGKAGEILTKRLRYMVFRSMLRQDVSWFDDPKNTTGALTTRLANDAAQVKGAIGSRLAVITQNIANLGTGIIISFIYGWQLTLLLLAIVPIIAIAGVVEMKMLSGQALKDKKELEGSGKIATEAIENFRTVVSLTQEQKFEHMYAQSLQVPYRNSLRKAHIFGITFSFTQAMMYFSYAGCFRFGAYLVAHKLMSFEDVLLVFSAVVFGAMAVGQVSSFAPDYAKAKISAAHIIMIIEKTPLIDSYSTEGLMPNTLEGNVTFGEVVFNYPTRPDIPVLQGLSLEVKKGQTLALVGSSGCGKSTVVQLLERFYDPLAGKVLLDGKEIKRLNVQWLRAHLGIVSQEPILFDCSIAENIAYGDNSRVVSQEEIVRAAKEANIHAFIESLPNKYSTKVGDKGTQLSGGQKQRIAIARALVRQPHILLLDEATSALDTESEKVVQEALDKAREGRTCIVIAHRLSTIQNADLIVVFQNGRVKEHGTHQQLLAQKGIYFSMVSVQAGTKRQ
UniProt Q03135: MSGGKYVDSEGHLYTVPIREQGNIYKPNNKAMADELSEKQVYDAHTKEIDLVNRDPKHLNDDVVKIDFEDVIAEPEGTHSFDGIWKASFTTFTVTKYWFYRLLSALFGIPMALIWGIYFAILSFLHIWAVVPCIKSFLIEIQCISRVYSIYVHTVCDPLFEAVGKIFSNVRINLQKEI

Tests used:
[1] = biological target: P-glycoprotein (human (endogenous in MCF-7/ADR)) (UniProt P08183); assay: co-IP; lysates of Cav1-silenced MCF-7/ADR cells rescued with Cav1 WT or Cav1 Y14E; immunoprecipitated with anti-P-gp or anti-Cav1 antibodies, western blotting
[2] = biological target: caveolin-1 (human (endogenous in MCF-7/ADR)) (UniProt Q03135); assay: co-IP; endogenous proteins in MCF-7/ADR lysates (Tris-Triton X-100-based lysis buffer); 1 ug of anti-P-gp, Src, Rack1 or Cav1 antibody overnight at 4 C, protein G-agarose, western blotting; also in control, Rack1-silenced (siRNA) and Src-silenced (siRNA) cells
[3] = biological target: wild-type Cav1 (rescued expression) (UniProt Q03135); assay: co-IP; lysates of Cav1-silenced MCF-7/ADR cells rescued with Cav1 WT or Cav1 Y14E; immunoprecipitated with anti-P-gp or anti-Cav1 antibodies, western blotting
[4] = biological target: Cav1 (Y14E) phosphor-tyrosine mimicking mutant (UniProt Q03135); assay: as above
[5] = biological target: P-glycoprotein (human (endogenous in MCF-7/ADR)) (UniProt P08183); assay: co-IP; endogenous proteins in MCF-7/ADR lysates (Tris-Triton X-100-based lysis buffer); 1 ug of anti-P-gp, Src, Rack1 or Cav1 antibody overnight at 4 C, protein G-agarose, western blotting; also in control, Rack1-silenced (siRNA) and Src-silenced (siRNA) cells

binding [1]: binds
Substance: Cav1 (Y14E) phosphor-tyrosine mimicking mutant (from UniProt Q03135 1-178)

binding [2]: binds | binding [3]: binds | binding [4]: binds
Substance: P-glycoprotein (from UniProt P08183 1-1280)

binding [5]: binds
Substance: caveolin-1 (from UniProt Q03135 1-178)

binding [1]: binds
Substance: wild-type Cav1 (rescued expression) (from UniProt Q03135 1-178)
